Results from paper PMC3762332.

Protein sequences, listed by entry. Tags and fused reporters are not part of them. Lines headed by an entry give the natural chain unless they say otherwise; changes in a name come on top.
UniProt P37231: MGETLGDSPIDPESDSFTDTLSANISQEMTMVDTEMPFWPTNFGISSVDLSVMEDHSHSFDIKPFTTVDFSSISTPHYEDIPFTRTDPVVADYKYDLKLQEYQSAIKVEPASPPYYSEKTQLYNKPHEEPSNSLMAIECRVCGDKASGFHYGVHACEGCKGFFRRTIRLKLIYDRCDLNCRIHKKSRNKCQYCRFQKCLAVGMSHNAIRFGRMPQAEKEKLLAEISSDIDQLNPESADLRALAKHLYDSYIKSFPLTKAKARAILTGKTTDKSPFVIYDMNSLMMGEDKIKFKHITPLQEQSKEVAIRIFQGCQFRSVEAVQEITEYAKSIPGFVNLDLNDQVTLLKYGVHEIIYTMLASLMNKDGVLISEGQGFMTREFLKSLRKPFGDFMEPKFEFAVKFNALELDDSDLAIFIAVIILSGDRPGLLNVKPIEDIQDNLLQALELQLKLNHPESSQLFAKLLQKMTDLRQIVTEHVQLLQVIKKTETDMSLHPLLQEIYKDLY
UniProt P05549: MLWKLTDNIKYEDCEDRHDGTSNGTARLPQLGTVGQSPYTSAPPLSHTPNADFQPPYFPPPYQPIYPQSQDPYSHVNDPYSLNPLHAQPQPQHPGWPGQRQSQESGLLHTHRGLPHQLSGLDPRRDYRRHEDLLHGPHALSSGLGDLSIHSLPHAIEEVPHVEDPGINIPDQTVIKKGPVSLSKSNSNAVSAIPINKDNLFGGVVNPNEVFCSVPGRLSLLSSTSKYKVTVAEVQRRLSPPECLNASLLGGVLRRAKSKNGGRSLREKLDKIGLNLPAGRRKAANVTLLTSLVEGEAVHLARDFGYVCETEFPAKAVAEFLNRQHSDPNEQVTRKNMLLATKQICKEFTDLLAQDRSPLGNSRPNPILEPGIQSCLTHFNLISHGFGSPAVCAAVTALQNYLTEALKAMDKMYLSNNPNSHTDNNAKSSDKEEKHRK
UniProt Q8IW36: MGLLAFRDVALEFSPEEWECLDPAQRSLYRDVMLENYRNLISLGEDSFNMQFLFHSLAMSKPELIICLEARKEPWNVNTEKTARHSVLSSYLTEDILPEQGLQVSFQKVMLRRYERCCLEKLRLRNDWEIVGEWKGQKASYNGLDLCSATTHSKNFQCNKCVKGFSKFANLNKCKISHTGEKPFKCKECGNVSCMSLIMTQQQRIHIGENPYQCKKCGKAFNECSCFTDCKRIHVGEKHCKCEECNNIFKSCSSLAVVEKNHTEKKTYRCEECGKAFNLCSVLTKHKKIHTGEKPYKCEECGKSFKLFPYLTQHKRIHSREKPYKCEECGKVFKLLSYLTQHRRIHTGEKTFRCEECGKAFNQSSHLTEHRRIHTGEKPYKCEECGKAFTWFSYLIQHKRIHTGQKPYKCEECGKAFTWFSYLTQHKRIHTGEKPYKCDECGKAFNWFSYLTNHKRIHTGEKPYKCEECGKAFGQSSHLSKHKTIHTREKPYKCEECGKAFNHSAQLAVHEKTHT
UniProt P23771: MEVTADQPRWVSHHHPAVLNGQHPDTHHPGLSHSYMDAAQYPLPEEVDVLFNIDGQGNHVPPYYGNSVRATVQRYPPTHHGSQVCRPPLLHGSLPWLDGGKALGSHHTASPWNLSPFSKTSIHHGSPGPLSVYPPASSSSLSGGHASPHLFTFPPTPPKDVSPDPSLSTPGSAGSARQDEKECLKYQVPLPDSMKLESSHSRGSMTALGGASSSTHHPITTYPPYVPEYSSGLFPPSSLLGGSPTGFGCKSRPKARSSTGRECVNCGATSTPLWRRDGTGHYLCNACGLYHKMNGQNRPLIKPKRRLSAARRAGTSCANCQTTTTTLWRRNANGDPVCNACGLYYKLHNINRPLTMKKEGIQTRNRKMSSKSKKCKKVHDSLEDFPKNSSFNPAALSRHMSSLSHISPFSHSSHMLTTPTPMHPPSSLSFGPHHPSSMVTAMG
UniProt Q96EB6: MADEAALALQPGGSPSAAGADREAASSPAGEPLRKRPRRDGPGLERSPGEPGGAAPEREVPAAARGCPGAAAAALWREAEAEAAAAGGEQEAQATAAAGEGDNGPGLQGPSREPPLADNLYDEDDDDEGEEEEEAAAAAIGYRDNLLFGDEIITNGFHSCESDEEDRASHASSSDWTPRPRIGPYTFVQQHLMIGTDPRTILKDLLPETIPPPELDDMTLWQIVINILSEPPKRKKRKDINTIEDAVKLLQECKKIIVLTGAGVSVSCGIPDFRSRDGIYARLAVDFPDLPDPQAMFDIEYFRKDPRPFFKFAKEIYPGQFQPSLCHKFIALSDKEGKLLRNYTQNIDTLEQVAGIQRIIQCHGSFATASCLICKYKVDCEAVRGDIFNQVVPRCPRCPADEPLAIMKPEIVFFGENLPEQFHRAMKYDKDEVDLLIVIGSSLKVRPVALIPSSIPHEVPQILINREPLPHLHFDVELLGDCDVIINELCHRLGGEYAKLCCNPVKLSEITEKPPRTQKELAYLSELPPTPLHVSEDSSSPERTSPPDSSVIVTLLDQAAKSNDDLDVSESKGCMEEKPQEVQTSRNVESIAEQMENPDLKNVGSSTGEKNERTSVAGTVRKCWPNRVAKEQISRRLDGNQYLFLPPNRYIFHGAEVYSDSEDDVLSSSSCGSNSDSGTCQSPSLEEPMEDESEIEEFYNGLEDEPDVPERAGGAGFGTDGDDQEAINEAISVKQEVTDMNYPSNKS
UniProt Q9HBZ2, whole entry: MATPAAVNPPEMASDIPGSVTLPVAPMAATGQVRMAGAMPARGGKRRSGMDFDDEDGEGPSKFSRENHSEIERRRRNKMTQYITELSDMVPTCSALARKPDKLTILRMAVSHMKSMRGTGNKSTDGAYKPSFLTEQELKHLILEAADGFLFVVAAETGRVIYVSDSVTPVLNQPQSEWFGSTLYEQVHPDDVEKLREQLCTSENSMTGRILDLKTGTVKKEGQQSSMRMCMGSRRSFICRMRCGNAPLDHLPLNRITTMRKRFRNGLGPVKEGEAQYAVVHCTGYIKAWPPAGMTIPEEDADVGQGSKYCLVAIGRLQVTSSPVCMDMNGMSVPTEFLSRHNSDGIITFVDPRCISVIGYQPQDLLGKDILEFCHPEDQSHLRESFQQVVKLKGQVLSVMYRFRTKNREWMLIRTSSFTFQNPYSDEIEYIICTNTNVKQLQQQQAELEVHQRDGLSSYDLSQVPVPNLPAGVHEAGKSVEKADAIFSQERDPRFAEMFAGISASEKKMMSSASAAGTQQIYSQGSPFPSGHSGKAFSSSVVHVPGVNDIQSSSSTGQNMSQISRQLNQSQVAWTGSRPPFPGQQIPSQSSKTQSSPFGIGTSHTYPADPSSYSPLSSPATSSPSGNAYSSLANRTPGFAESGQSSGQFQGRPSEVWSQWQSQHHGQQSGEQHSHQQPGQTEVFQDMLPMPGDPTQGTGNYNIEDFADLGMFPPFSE

Experiments:
Experiment in all cases: protein microarray
Details in all cases: 10-fold cold unmethylated competitor; 5mC at CpG (SssI, both strands); recombinant protein; protein details: GST (N-terminal); label: Cy5
BCL3 (Homo sapiens) = target: T1, BCL3 (Homo sapiens) (UniProt P20749)
T1 sequence (looked up, limits assumed): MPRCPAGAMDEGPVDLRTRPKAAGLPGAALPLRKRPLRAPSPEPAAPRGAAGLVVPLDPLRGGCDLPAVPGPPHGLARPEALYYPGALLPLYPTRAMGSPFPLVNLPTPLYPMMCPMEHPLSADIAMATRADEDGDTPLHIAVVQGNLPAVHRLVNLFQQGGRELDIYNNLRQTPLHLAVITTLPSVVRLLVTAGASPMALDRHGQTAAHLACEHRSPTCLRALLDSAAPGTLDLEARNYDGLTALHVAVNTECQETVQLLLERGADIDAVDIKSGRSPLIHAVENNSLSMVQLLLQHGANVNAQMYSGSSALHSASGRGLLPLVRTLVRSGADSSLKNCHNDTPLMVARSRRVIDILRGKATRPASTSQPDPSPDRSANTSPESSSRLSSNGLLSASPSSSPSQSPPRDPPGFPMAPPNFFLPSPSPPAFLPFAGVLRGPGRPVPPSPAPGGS

RNF138 (Homo sapiens) = target: T2, RNF138 (Homo sapiens) (UniProt Q8WVD3)
T2 sequence (looked up, limits assumed): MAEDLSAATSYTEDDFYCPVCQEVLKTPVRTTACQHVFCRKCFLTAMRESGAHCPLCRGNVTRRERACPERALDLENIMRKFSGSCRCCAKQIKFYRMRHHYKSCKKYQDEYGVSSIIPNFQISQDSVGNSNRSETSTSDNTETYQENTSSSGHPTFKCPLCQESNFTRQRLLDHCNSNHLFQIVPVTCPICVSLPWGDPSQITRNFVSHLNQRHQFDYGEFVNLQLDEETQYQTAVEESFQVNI

PPARG (Homo sapiens) = PPARG (Homo sapiens) (UniProt P37231)
TFAP2A (Homo sapiens) = TFAP2A (Homo sapiens) (UniProt P05549)
ARID3B (Homo sapiens) = target: T3, ARID3B (Homo sapiens) (UniProt Q8IVW6)
T3 sequence (looked up, limits assumed): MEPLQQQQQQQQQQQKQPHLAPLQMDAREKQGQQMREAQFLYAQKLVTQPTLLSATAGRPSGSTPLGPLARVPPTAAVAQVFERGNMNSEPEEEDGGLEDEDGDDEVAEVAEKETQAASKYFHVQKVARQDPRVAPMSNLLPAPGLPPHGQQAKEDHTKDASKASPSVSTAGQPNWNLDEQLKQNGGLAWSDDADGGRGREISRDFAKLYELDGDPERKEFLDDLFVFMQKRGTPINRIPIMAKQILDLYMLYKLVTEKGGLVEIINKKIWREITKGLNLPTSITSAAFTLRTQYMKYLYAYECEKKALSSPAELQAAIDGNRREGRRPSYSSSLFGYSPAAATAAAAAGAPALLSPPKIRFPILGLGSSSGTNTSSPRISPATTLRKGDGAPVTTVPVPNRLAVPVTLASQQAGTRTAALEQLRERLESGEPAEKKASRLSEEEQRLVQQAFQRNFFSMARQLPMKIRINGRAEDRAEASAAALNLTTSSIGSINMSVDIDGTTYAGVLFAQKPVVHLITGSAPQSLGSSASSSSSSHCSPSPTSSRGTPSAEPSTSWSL

ZNF695 (Homo sapiens) = ZNF695 (Homo sapiens) (UniProt Q8IW36)
GATA3 (Homo sapiens) = GATA3 (Homo sapiens) (UniProt P23771)
NRF1 (Homo sapiens) = target: T4, NRF1 (Homo sapiens) (UniProt Q16656)
T4 sequence (looked up, limits assumed): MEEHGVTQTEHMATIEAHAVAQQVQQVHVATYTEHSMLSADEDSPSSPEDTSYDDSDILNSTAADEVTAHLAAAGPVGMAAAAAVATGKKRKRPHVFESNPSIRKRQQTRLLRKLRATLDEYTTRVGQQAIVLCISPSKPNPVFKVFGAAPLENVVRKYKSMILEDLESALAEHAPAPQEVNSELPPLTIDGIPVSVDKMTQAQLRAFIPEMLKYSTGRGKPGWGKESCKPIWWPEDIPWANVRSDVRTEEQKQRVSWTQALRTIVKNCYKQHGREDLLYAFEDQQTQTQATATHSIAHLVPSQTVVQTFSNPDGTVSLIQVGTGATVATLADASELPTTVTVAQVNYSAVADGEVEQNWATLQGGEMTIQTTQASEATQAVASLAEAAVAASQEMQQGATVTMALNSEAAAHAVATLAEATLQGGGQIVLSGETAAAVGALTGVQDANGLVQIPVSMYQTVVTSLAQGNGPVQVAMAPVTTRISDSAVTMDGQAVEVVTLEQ

SSRP1 (Homo sapiens) = SSRP1 (Homo sapiens) (UniProt Q08945)
SIRT1 (Homo sapiens) = SIRT1 (Homo sapiens) (UniProt Q96EB6)
ARNT2 (Homo sapiens) = ARNT2 (Homo sapiens) (UniProt Q9HBZ2)
E2F6 (Homo sapiens) = target: T5, E2F6 (Homo sapiens) (UniProt O75461)
T5 sequence (looked up, limits assumed): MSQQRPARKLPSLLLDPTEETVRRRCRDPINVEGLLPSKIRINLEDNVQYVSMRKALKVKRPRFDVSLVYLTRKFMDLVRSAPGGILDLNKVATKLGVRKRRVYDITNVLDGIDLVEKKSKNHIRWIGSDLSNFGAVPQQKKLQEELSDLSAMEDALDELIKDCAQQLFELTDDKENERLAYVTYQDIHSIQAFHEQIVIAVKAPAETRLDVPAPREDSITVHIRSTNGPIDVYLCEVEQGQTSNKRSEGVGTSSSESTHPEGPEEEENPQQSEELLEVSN

CALR (Homo sapiens) = target: T6, CALR (Homo sapiens) (UniProt P27797)
T6 sequence (looked up, limits assumed): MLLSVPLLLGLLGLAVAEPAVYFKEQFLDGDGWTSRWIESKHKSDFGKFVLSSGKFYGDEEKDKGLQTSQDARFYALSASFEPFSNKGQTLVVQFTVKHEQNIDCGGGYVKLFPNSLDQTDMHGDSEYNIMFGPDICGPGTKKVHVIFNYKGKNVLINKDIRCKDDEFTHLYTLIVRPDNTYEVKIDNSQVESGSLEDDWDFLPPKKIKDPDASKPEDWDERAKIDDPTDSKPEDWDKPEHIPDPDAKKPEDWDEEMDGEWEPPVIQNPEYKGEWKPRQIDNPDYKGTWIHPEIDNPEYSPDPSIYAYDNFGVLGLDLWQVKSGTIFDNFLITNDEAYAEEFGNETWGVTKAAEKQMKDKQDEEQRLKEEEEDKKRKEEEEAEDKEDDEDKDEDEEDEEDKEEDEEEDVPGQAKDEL

Measured: binding result

ACGTCAGAAAACGTCAGCCCTATAGTGAGTGCTATTA (double strand) [M303]
binds: BCL3 (Homo sapiens) | RNF138 (Homo sapiens) | PPARG (Homo sapiens) | TFAP2A (Homo sapiens) | ARID3B (Homo sapiens) | ZNF695 (Homo sapiens)

ACGTGGGTTTACGTGGGCCCTATAGTGAGTGCTATTA (double strand) [M327]
binds: BCL3 (Homo sapiens) | RNF138 (Homo sapiens) | GATA3 (Homo sapiens) | NRF1 (Homo sapiens) | PPARG (Homo sapiens) | TFAP2A (Homo sapiens) | ZNF695 (Homo sapiens)

AGGCCGCTTTAGGCCGCCCCTATAGTGAGTGCTATTA (double strand) [M304]
not listed: TFAP2A (Homo sapiens) | NRF1 (Homo sapiens) | ARNT2 (Homo sapiens) | E2F6 (Homo sapiens) | CALR (Homo sapiens)
binds: all other assays above

CATCCGGGAAACATCCGGGCCCTATAGTGAGTGCTATTA (double strand) [M322]
binds: BCL3 (Homo sapiens) | NRF1 (Homo sapiens) | PPARG (Homo sapiens) | TFAP2A (Homo sapiens) | ZNF695 (Homo sapiens)

CCGGAACTTTCCGGAACCCCTATAGTGAGTGCTATTA (double strand) [M318]
binds: BCL3 (Homo sapiens) | RNF138 (Homo sapiens) | GATA3 (Homo sapiens) | NRF1 (Homo sapiens) | PPARG (Homo sapiens) | ARID3B (Homo sapiens) | ZNF695 (Homo sapiens)

CCGGAGCAAACCGGAGCCCCTATAGTGAGTGCTATTA (double strand) [M301]
binds: BCL3 (Homo sapiens) | RNF138 (Homo sapiens) | NRF1 (Homo sapiens) | PPARG (Homo sapiens) | TFAP2A (Homo sapiens) | ZNF695 (Homo sapiens)

CGCTGCCAAACGCTGCCCCCTATAGTGAGTGCTATTA (double strand) [M305]
binds: BCL3 (Homo sapiens) | SSRP1 (Homo sapiens) | RNF138 (Homo sapiens) | NRF1 (Homo sapiens) | PPARG (Homo sapiens) | ZNF695 (Homo sapiens)

CGCTTCCAAACGCTTCCCCCTATAGTGAGTGCTATTA (double strand) [M319]
not listed: SIRT1 (Homo sapiens) | E2F6 (Homo sapiens) | CALR (Homo sapiens)
binds: all other assays above

CGGATGTAAACGGATGTCCCTATAGTGAGTGCTATTA (double strand) [M27]
binds: BCL3 (Homo sapiens) | RNF138 (Homo sapiens) | NRF1 (Homo sapiens) | PPARG (Homo sapiens) | TFAP2A (Homo sapiens) | ZNF695 (Homo sapiens)

CTGCCGCAAACTGCCGCCCCTATAGTGAGTGCTATTA (double strand) [M95]
binds: BCL3 (Homo sapiens) | RNF138 (Homo sapiens) | GATA3 (Homo sapiens) | NRF1 (Homo sapiens) | PPARG (Homo sapiens)

GTCACGCCCAAAGTCACGCCCCCCTATAGTGAGTGCTATTA (double strand) [M213]
binds: E2F6 (Homo sapiens) | RNF138 (Homo sapiens) | NRF1 (Homo sapiens) | CALR (Homo sapiens) | TFAP2A (Homo sapiens) | ZNF695 (Homo sapiens)

TGTTCCGATTTTGTTCCGACCCTATAGTGAGTGCTATTA (double strand) [M447]
binds: BCL3 (Homo sapiens) | RNF138 (Homo sapiens) | NRF1 (Homo sapiens) | PPARG (Homo sapiens)

Construct, isoform or probe ends are uncertain for at least one entry. For some of these results: Protein sequences can lack the tags named with them.
